Measurements published in patent US5385834.

Molecular target: T7 RNA polymerase mutant GP1(lys222), expressed from pKGP-HA1mut4 or pMutA/B E222K (Bacteriophage T7) (UniProt P00573)
Test: activity in cells
Conditions: 200 colonies on kan/amp/cam; usage comparable to wild-type enzyme; protein in cells; only the site is given

**Q.** “TAATACGACTCACTATAGGGAGA (double strand) [consensus T7 phi10 promoter (pCAT10-1)]” was tested. Which functional effect did it give?
**A.** Its functional effect is “active”.
